Results from PubChem BioAssay AID2685 (National Center for Advancing Translational Sciences (NCATS), 2010).
The other results are listed elsewhere or left out. The main result of the screen is listed elsewhere. These columns were measured beside it and carry no call. Most of these compounds were active or inconclusive in the main read-out, so they are no random draw. The note in brackets gives the kind of curve behind each potency; many fits are weak.

Experiment: qHTS Assay for Lipid Storage Modulators in Drosophila S3 Cells;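 on cell number change: cells counted by Cell Tracker Red CMTPX staining in the red channel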
Conditions: BODIPY lipid droplet fluorescence, 18-24 h; for cell number change: measured here: cell count max response, cells fed with added oleic acid
Summary of the method: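 Laser-scanning cytometry quantifies lipid droplet accumulation (500–530 nm total intensity; droplet/cell object ratio) in oleic acid-fed (400 uM added) Drosophila S3 cells treated with a concentration series. 20 uM Triacsin C defined 100% inhibition.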

[1] = measured here: lipid fluorescence (Fed channel) AC50, cells fed with added oleic acid
[2] = measured here: cell number channel AC50, cells fed with added oleic acid

Row | SMILES | cell number change | AC50 [1] | AC50 [2]
1 | Cc1cccc(C)c1NC(=O)CN(C)C(C)C(=O)NCC(=O)Nc1ccc(F)c(F)c1F (stereo not given) | -16% | – | –
2 | CCOC(=O)COn1c(=O)c(-c2ccc(C)cc2)[n+]([O-])c2ccccc21 | -0.741% | 0.082 µM [rising, partial curve, poor fit] | –
3 | CC1(C#N)c2ccccc2C(Br)=CN1C(=O)c1ccccc1 (stereo not given) | -6.34% | 23.1 µM [rising, single point] | –
4 | CCOc1nc(NC(=O)NS(=O)(=O)Oc2ccccc2Cl)nc(-c2ccccc2)n1 | – | 8.2 µM [rising, partial curve] | 0.366 µM [rising, full curve]
5 | CCOC(=O)[C@@H]1[C@H]2COc3ccccc3[C@H]2N2C(=O)N(c3ccccc3)C(=O)[C@]12C | -17.5% | – | –
6 | COc1cccc(CNC(=O)Cn2c(=O)oc3cc(S(=O)(=O)N4CCCCC4)ccc32)c1 | 18.4% | 16.4 µM [falling, partial curve, poor fit] | –
7 | COc1ccc(C2(O)CC3CCC(C2)N3c2cc(C)nc(-c3ccccc3)n2)cc1 (stereo not given) | -18.5% | – | –
8 | COc1ccccc1C(=O)N/C(=C\c1cn(S(=O)(=O)N(C)C)c2ccccc12)C(=O)N1CCCCC1 | – | 0.58 µM [rising, single point] | –
9 | COc1ccccc1Nc1nc(N)nc(CSC(=S)N2CCN(c3ccccc3)CC2)n1 | – | 13 µM [rising, partial curve, poor fit] | –
10 | CCOc1ccccc1CNC(c1ccccc1)c1ccccc1 | 13.2% | 6.51 µM [rising, partial curve] | –
11 | COc1ccc(NS(=O)(=O)c2cc(NC(=O)CNC(=O)c3ccc(C)s3)ccc2Cl)cc1 | 74.2% | 7.31 µM [rising, partial curve] | 2.91 µM [rising, partial curve, poor fit]
12 | O=C(CSc1n[nH]c(-c2ccccn2)n1)Nc1cccc(Cl)c1 | -30.3% | – | 13 µM [falling, partial curve, poor fit]
13 | CC1=NN=C(c2ccccc2)C(c2c[nH]c3ccccc23)N1O (stereo not given) | 18.7% | 32.6 µM [rising, single point] | –
14 | N#Cc1nc(Cc2cccc3ccccc23)oc1NCc1ccco1 | -13.5% | 0.082 µM [rising, full curve, poor fit] | –
15 | COc1ccccc1NC(=O)C1=C(C)NC(=O)NC1c1cccc(OC)c1OC (stereo not given) | -19.1% | 29.1 µM [falling, single point] | –
16 | CN(C(=O)/C=C/c1ccccc1)C1CCS(=O)(=O)C1 (stereo not given) | 13% | 29.1 µM [falling, single point] | –
17 | O=S(=O)(c1cccc(-c2cn3cc(Cl)ccc3n2)c1)N1CCOCC1 | -5.31% | – | –
18 | COC(=O)c1cc(C(=O)NCc2ccccc2)c(=O)[nH]c1C | -141% | 20.6 µM [falling, partial curve] | –
19 | CCN(CC(=O)Nc1cc(Cl)ccc1C)C(=O)C1CC1 | -0.684% | 20.6 µM [rising, partial curve, poor fit] | –

Some of the entries so far, as comma-separated lines.
Row,SMILES,cell number change,AC50 [1],AC50 [2]
3,CC1(C#N)c2ccccc2C(Br)=CN1C(=O)c1ccccc1 (stereo not given),-6.34%,"23.1 µM [rising, single point]",–
4,CCOc1nc(NC(=O)NS(=O)(=O)Oc2ccccc2Cl)nc(-c2ccccc2)n1,–,"8.2 µM [rising, partial curve]","0.366 µM [rising, full curve]"
7,COc1ccc(C2(O)CC3CCC(C2)N3c2cc(C)nc(-c3ccccc3)n2)cc1 (stereo not given),-18.5%,–,–
8,COc1ccccc1C(=O)N/C(=C\c1cn(S(=O)(=O)N(C)C)c2ccccc12)C(=O)N1CCCCC1,–,"0.58 µM [rising, single point]",–
15,COc1ccccc1NC(=O)C1=C(C)NC(=O)NC1c1cccc(OC)c1OC (stereo not given),-19.1%,"29.1 µM [falling, single point]",–
16,CN(C(=O)/C=C/c1ccccc1)C1CCS(=O)(=O)C1 (stereo not given),13%,"29.1 µM [falling, single point]",–
19,CCN(CC(=O)Nc1cc(Cl)ccc1C)C(=O)C1CC1,-0.684%,"20.6 µM [rising, partial curve, poor fit]",–

(further entries)

Row | SMILES | cell number change | AC50 [1] | AC50 [2]
20 | CC(=O)Nc1ccc(NC(=O)C2CCCN(S(=O)(=O)c3ccc(-n4cnnn4)cc3)C2)cc1 (stereo not given) | 11.7% | 0.731 µM [rising, full curve] | –
21 | COc1ccc(CN(C(=O)Cc2c[nH]c3ccccc23)C(C(=O)NC2CCCCC2)c2ccc(C)o2)cc1 (stereo not given) | -102% | 2.06 µM [falling, partial curve] | 29.1 µM [falling, single point]
22 | O=C(O)c1ccc(NC(=O)c2ccccc2NC(=O)c2cccc(Br)c2)cc1 | 7.92% | 29.1 µM [rising, single point] | –
23 | Cc1ccsc1/C=N/NC(=O)c1nnn(-c2nonc2N)c1CSc1ccccc1 | 15.6% | 3.26 µM [falling, partial curve] | –
24 | CC1=C[C@H]2Cc3cc(C)cc(C)c3S(=O)(=O)[C@@H]2C=C1 | 16% | 1.64 µM [rising, full curve] | –
25 | CC(Oc1ccc(Cl)cc1)c1ccnn1S(=O)(=O)c1ccccc1 (stereo not given) | -38.9% | 29.1 µM [falling, single point] | 16.4 µM [falling, single point]
26 | CC1CCN(CCOCCOc2ccc(Br)cc2Cl)CC1 | -1.82% | 0.517 µM [falling, full curve, poor fit] | –
27 | COc1cc(C(=O)NNC(=O)c2ccoc2C)cc(OC)c1OC | -4.69% | 0.082 µM [falling, full curve, poor fit] | –
28 | O=C(Nc1cc2c3c(c1)CC(=O)N3CCC2)c1c(F)cccc1F | – | 0.92 µM [rising, partial curve] | 1.3 µM [rising, full curve]
29 | CN(c1ccc(C(=O)NCC2CCCO2)cc1)S(=O)(=O)c1ccccc1 (stereo not given) | 1.97% | – | –
30 | COc1ccccc1NC(=O)CN(Cc1ccco1)C(=O)c1cccs1 | 22.2% | – | –
31 | Cc1cccc2nc(C(F)(F)F)nc(=O)n12 | -7.82% | 0.0058 µM [rising, full curve, poor fit] | –
32 | CCOc1cc(NC(=O)C2CC2)c(OCC)cc1NC(=O)c1ccccn1 | 14.9% | 4.11 µM [rising, partial curve, poor fit] | –
33 | Cn1nc(CC(=O)Nc2ccc3c(c2)CCC3)c2ccccc2c1=O | -1.47% | 0.0291 µM [rising, full curve, poor fit] | 3.66 µM [falling, partial curve]
34 | Cc1ccc(C(C(=O)Nc2ccc3c(c2)OCO3)N(C)C(=O)/C=C\c2ccc3c(c2)OCO3)cc1 (stereo not given) | -10.4% | 2.06 µM [rising, partial curve, poor fit] | –
35 | CCN(CC(=O)Nc1ccc(NC(C)=O)cc1)C(=O)Cc1c(Cl)cccc1Cl | 9.83% | 29.1 µM [rising, single point] | –
36 | CCOC(=O)Cc1cc(=O)[nH]c(/N=C(/NC(=O)c2ccccc2)Nc2ccccc2C(F)(F)F)n1 | -75% | – | 1.46 µM [falling, partial curve]
37 | O=C(NCc1ccncc1)c1ccc(N2CCCC2)c([N+](=O)[O-])c1 | -57% | – | 29.1 µM [falling, single point]
